For at least one compound, name, drawing or mass did not settle the structure.
Test: Dissolution studies of arsenic salts in 100 mL water with stirring at room temperature (pH 7 and pH 1-2)
Assay type: physicochemical
Settings: value printed in minutes and seconds

O=[As][O-].[Na+] [Sodium meta arsenite, sodium meta arsenite]
Dissolution Time at pH 7: 1 minute 40 seconds - Final

Source: US10493099B2, “Compositions containing arsenic and their use in methods of treatment” (Eupharma Pty Ltd, priority 2015, dated 2019)
